Data from US7105536B2, “Compounds” (SmithKline Beecham plc, priority 1999, dated 2006).
Some of these results come from one statement about several compounds together. For at least one compound, name, drawing or mass did not settle the structure.

Biological target: novel receptor obtainable from rat forebrain tissue
Test: [3H]-Compound A radioligand binding assay
Details: competition with [3H]-Compound A (usually 20 nM), room temperature, 1 hour

Q: Which pKi does the source give for `CCOc1ccc(C(=O)Nc2cc(Cl)c3c(c2Cl)CNCC3)cc1Br` [Example 35, N-(5,8-Dichloro-1,2,3,4-tetrahydroisoquinolin-7-yl)-3-bromo-4-ethoxybenzamide] here?
A: The pKi was “greater than 8”.

Q: For `COc1ccc(C(=O)Nc2cc(Br)c3c(c2)CNCC3)cc1Br` [Example 22, N-(5-Bromo-1,2,3,4-tetrahydroisoquinolin-7-yl)-3-bromo-4-methoxybenzamide], which pKi is on record?
A: The pKi was “greater than 8”.

Q: Which pKi does the source give for `CCOc1ccc(C(=O)Nc2cc(Cl)c3c(c2)CNCC3)cc1Br` [Example 7, N-(5-Chloro-1,2,3,4-tetrahydroisoquinolin-7-yl)-3-bromo-4-ethoxybenzamide] here?
A: The pKi was “greater than 8”.

Q: For `CCOc1ccc(C(=O)Nc2cc(Br)c3c(c2)CNCC3)cc1Cl` [Example 28, N-(5-Bromo-1,2,3,4-tetrahydroisoquinolin-7-yl)-3-chloro-4-ethoxybenzamide], which pKi is on record?
A: The pKi was “greater than 8”.

Q: `CCOc1ccc(C(=O)Nc2cc(Cl)c3c(c2)CNCC3)cc1C#N` [Example 13, N-(5-Chloro-1,2,3,4-tetrahydroisoquinolin-7-yl)-3-cyano-4-ethoxy benzamide] was tested. Which pKi did it give?
A: Its pKi is “greater than 8”.

Q: `CCc1ccc(C(=O)Nc2cc(Cl)c3c(c2)CNCC3)cc1Br` [Example 10, N-(5-Chloro-1,2,3,4-tetrahydroisoquinolin-7-yl)-3-bromo-4-ethylbenzamide] was tested. Which pKi did it give?
A: The pKi was “greater than 7”.

Q: Which pKi does the source give for `CC(C)Oc1ccc(C(=O)Nc2cc(Cl)c3c(c2)CNCC3)cc1Cl` [Example 11, N-(5-Chloro-1,2,3,4-tetrahydroisoquinolin-7-y)-3-chloro-4-iso-propoxybenzamide] here?
A: The pKi was “greater than 7”.

Q: How did the pKi turn out when `COc1ccc(C(=O)Nc2cc3c(c(C(F)(F)F)c2)CCNC3)cc1F` [Example 33, N-(5-Trifluoromethyl-1,2,3,4-tetrahydroisoquinolin-7-yl)-3-fuoro-4-methoxybenzamide] was run?
A: Its pKi is “greater than 8”.

Q: With `COc1ccc(C(=O)Nc2cc(Cl)c3c(c2Cl)CNCC3)cc1F` [Example 38, N-(5,8-Dichloro-1,2,3,4-tetrahydroisoquinolin-7-yl)-3-fluoro-4-methoxybenzamide] as the compound, how does the pKi read?
A: The pKi was “greater than 7”.

Q: How did the pKi turn out when `CCOc1ccc(C(=O)Nc2cc(Br)c3c(c2)CNCC3)cc1C(C)=O` [Example 26, N-(5-Bromo-1,2,3,4-tetrahydroisoquinolin-7-yl)-3-acetyl-4-ethoxybenzamide] was run?
A: The pKi was “greater than 8”.

Q: `CC(C)c1ccc(C(=O)Nc2cc(Br)c3c(c2)CNCC3)cc1C#N` [Example 30, N-(5-Bromo-1,4-tetrahydroisoquinolin-7-yl)-3-cyano-4-so-propylbenzamide] was tested. Which pKi did it give?
A: Its pKi is “greater than 8”.

Q: With `CC(=O)c1cc(C(=O)Nc2cc(Cl)c3c(c2)CNCC3)ccc1OC(C)C` [Example 8, N-(5-Chloro-1,2,3,4-tetrahydroisoquinolin-7-yl)-3-acetyl-4-iso-propoxybenzamide] as the compound, how does the pKi read?
A: The pKi was “greater than 8”.

Q: For `CCc1ccc(C(=O)Nc2cc(Cl)c3c(c2)CNCC3)cc1C(C)=O` [Example 9, N-(5-Chloro-1,2,3,4-tetrahydroisoquinolin-7-yl)-3-acetyl-4-ethylbenzamide], which pKi is on record?
A: Its pKi is “greater than 8”.

Q: How did the pKi turn out when `CCOc1ccc(C(=O)Nc2cc(Br)c3c(c2)CNCC3)cc1C#N` [Example 25, N-(5-Bromo-1,2,3,4-tetrahydroisoquinolin-7-yl)-3-cyano-4-ethoxybenzamide] was run?
A: Its pKi is “greater than 8”.

Q: Which pKi does the source give for `CCOc1ccc(C(=O)Nc2cc(Cl)c3c(c2Cl)CNCC3)cc1C#N` [Example 36, N-(5,8-Dichloro-1,2,3,4-tetrahydroisoquinolin-7-yl)-3-cyano-4-ethoxybenzamide] here?
A: The pKi was “greater than 8”.

Q: `COc1ccc(C(=O)Nc2cc(Cl)c3c(c2Cl)CNCC3)cc1C(F)(F)F` [Example 16, N-(5,8-Dichloro-1,2,3,4-tetrahydroisoquinolin-7-yl)-4-methoxy-3-trifluoromethylbenzamide] was tested. Which pKi did it give?
A: The pKi was “greater than 8”.

Q: How did the pKi turn out when `COc1ccc(C(=O)Nc2cc(Cl)c3c(c2)CNCC3)cc1Cl` [Example 6, N-(5-Chloro-1,2,3,4-tetrahydroisoquinolin-7-yl)-3-chloro-4-methoxybenzamide] was run?
A: Its pKi is “greater than 8”.

Q: With `COc1ccc(C(=O)Nc2cc(Cl)c3c(c2)CNCC3)cc1C(F)(F)F` [Example 4, N-(5-Chloro-1,2,3,4-tetrahydroisoquinolin-7-yl)-4-methoxy-3-trifluoromethyl benzamide] as the compound, how does the pKi read?
A: The pKi was “greater than 8”.

Q: Which pKi does the source give for `COc1ccc(C(=O)Nc2cc(Cl)c3c(c2)CNCC3)cc1C#N` [Example 5, N-(5-Chloro-1,2,3,4-tetrahydroisoquinolin-7-yl)-3-cyano-4-methoxybenzamide] here?
A: Its pKi is “greater than 8”.

Q: Which pKi does the source give for `CCOc1ccc(C(=O)Nc2cc(Br)c3c(c2)CNCC3)cc1Br` [Example 29, N-(5-Bromo-1,2,3,4-tetrahydroisoquinolin-7-yl)-3-bromo-4-ethoxybenzamide] here?
A: Its pKi is “greater than 8”.

Q: How did the pKi turn out when `CCOc1ccc(C(=O)Nc2cc(Cl)c3c(c2)CNCC3)cc1C(F)(F)F` [Example 12, N-(5-Chloro-1,2,3,4-tetrahydroisoquinolin-7-yl)-4-ethoxy-3-trifluoromethyl benzamide] was run?
A: Its pKi is “greater than 7”.

Q: With `CCOc1ccc(C(=O)Nc2cc(Cl)c3c(c2Cl)CNCC3)cc1Cl` [Example 34, N-(5,8-Dichloro-1,2,3,4-tetrahydroisoquinolin-7-yl)-3-chloro-4-ethoxybenzande] as the compound, how does the pKi read?
A: The pKi was “greater than 8”.

Q: With `CC(=O)c1cc(C(=O)Nc2cc(Cl)c3c(c2Cl)CNCC3)ccc1OC(C)C` [Example 40, N-(5,8-Dichloro-1,2,3,4-tetrahydroisoquinolin-7-yl)-3-acetyl-4-iso-propoxybenzamide] as the compound, how does the pKi read?
A: Its pKi is “greater than 8”.

Q: `CCOc1ccc(C(=O)Nc2cc(Cl)c3c(c2)CNCC3)cc1Cl` [Example 2, N-(5-Chloro-1,2,3,4-tetrahydroisoquinolin-7-yl)-3-chloro-4-ethoxy benzamide] was tested. Which pKi did it give?
A: The pKi was “greater than 8”.

Q: With `CC(=O)c1cc(C(=O)Nc2cc(Br)c3c(c2)CNCC3)ccc1OC(C)C` [Example 27, N-(5-Bromo-1,2,3,4-tetrahydroisoquinolin-7-yl)-3-acetyl-4-iso-propoxybenzamide] as the compound, how does the pKi read?
A: The pKi was “greater than 8”.

Q: Which pKi does the source give for `CCOc1ccc(C(=O)Nc2cc(Cl)c3c(c2)CNCC3)cc1C(C)=O` [Example 14, N-(5-Chloro-1,2,3,4-tetrahydroisoquinolin-7-yl)-3-acetyl4-ethoxy benzamide] here?
A: Its pKi is “greater than 8”.

Q: How did the pKi turn out when `COc1ccc(C(=O)Nc2cc(Cl)c3c(c2Cl)CNCC3)cc1Br` [Example 39, N-(5,8-Dichloro-1,2,3,4-tetrahydroisoquinolin-7-yl)-3-bromo-4-methoxybenzamide] was run?
A: Its pKi is “greater than 8”.

Q: Which pKi does the source give for `CC(C)Oc1ccc(C(=O)Nc2cc(Cl)c3c(c2)CNCC3)cc1C#N` [Example 41, N-(5-Chloro-1,2,3,4-tetrahydroisoquinolin-7-yl)-3-cyano-4-iso-propoxybenzamide] here?
A: The pKi was “greater than 8”.

Q: For `CCOc1ccc(C(=O)Nc2cc(Cl)c3c(c2Cl)CNCC3)cc1C(C)=O` [Example 37, N-(5,8-Dichloro-1,2,3,4-tetrahydroisoquinolin-7-yl)-3-acetyl-4-ethoxybenzamide], which pKi is on record?
A: The pKi was “greater than 8”.

Q: With `CCOc1ccc(C(=O)Nc2cc3c(c(C(F)(F)F)c2)CCNC3)cc1Cl` [Example 31, N-(5-Trifluoromethyl-1,2,3,4-tetrahydroisoquinolin-7-yl)-3-chloro-4-ethoxybenzamide] as the compound, how does the pKi read?
A: The pKi was “greater than 8”.

Q: `COc1ccc(C(=O)Nc2cc3c(c(C(F)(F)F)c2)CCNC3)cc1C(F)(F)F` [Example 32, N-(5-Trifluoromethyl-1,2,3,4-tetrahydroisoquinolin-7-yl)-4-methoxy-3-trifluoromethylbenzamide] was tested. Which pKi did it give?
A: The pKi was “greater than 8”.
